Test results as given in patent US6123916A, “Therapeutic use of somatostatin peptides” (priority 1990, dated 2000).
At least one peptide structure holds a part that was inferred or is arguable (an end, a ring closure or a residue).

System: GH level in the blood serum
Assay: GH-reducing activity after oral application to male rats with estradiol implants
Assay type: in vivo, rat
Conditions: male OFA rats with oestradiol implants, oral administration, same test

C[C@@H](O)[C@@H]1NC(=O)[C@H](CCCCN)NC(=O)[C@@H](Cc2c[nH]c3ccccc23)NC(=O)[C@H](Cc2ccccc2)NC(=O)[C@@H](NC(=O)[C@H](N)Cc2ccccc2)CSSC[C@@H](C(=O)N[C@H](CO)[C@@H](C)O)NC1=O [Octreotide, octreotide]
ID50 of GH reduction: 0.420 mg/kg
